Experimental data reported in patent publication US20250388690A1.
Changes are numbered by the printed parent chain. No constants are given. Whether binding was seen depends on the method and setting. Some binding calls cover weakened binding; strength is not graded here.

T1: wild type, full length murine TNFR2 (mouse) (UniProt P25119)
T1 sequence (looked up): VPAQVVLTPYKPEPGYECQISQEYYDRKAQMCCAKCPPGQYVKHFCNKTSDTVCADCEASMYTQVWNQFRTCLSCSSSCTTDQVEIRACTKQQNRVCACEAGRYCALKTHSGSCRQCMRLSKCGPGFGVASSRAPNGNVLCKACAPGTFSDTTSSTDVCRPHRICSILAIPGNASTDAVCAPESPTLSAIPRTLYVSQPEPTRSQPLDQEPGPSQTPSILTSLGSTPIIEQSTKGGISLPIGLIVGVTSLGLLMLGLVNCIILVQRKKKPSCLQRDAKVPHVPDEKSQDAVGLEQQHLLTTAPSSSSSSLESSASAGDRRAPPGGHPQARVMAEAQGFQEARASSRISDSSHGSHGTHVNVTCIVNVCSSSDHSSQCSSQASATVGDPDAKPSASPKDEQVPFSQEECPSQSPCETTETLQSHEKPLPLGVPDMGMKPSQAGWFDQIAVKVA

B1: 005-A05 (antibody, V domains shown)
VH: EVQLLESGGGLVQPGGSLRLSCAASGFTFSSYAMSWVRQAPGKGLEWVSTIIGSGANTWYADSVKGRFTISRDNSKNTLYLQMNSLRAEDTAVYYCARHEGYYYYGMDVWGQGTLVTVSS
VL: QSVLTQPPSASGTPGQRVTISCTGSSSNIGAGYVVHWYQQLPGTAPKLLIYGNSNRPSGVPDRFSGSKSGTSASLAISGLRSEDEADYYCAAWDDSLNGRVFGGGTKLTVLG
B2: 001-A09 (antibody, V domains shown)
VH: EVQLLESGGGLVQPGGSLRLSCAASGFTFSSNYMSWVRQAPGKGLEWVSVISGSGGSTYYADSVKGRFTISRDNSKNTLYLQMNSLRAEDTAVYYCARDRGWFDPWGQGTLVTVSS
VL: QSVLTQPPSASGTPGQRVTISCSGSRSNIDNSYVSWYQQLPGTAPKLLIYRNNQRPSGVPDRFSGSKSGTSASLAISGLRSEDEADYYCATWDDSLSGPVFGGGTKLTVLG
B3: 001-B05 (antibody, V domains shown)
VH: EVQLLESGGGLVQPGGSLRLSCAASGFTFSNAWMSWVRQAPGKGLEWVSSISSASGYIYYGDSVKGRFTISRDNSKNTLYLQMNNLRAEDTAVYYCARGTLYGDFDEFWGQGTLVTVSS
VL: QSVLTQPPSASGTPGQRVTISCSGSSSNIGNNAVNWYQQLPGTAPKLLIYGNTNRPSGVPDRFSGSKSGTSASLAISGLRSEDEADYYCQSYDSSLSGYVVFGGGTKLTVLG
B4: 001-B09 (antibody, V domains shown)
VH: EVQLLESGGGLVQPGGSLRLSCAASGFTFSRHAMNWVRQAPGKGLEWVSSISTGSSYIDYADSVKGRFTISRDNSKNTLYLQMNSLRAEDTAVYYCAREKGHYYYGMDVWGQGTLVTVSS
VL: QSVLTQPPSASGTPGQRVTISCTGSSSNIGAGYDVHWYQQLPGTAPKLLIYGNSYRPSGVPDRFSGSKSGTSASLAISGLRSEDEADYYCQSYDTSLSAYVVFGGGTKLTVLG
B5: 001-C03 (antibody, V domains shown)
VH: EVQLLESGGGLVQPGGSLRLSCAASGFTFSNAWMSWVRQAPGKGLEWVSAISVSGINTYYADSVKGRFTISRDNSKNTLYLQMNSLRAEDTAVYYCARDTGSLGVDYWGQGTLVTVSS
VL: QSVLTQPPSASGTPGQRVTISCSGSSSNIGSNTVNWYQQLPGTAPKLLIYRNNQRPSGVPDRFSGSKSGTSASLAISGLRSEDEADYYCQSYDSSLSISVFGGGTKLTVLG
B6: 001-C05 (antibody, V domains shown)
VH: EVQLLESGGGLVQPGGSLRLSCAASGFTFSSNEMSWIRQAPGKGLEWVSVIYSGGSTYYADSVKGRFTISRDNSKNTLYLQMNSLRAEDTAVYYCARREGWLVPFDYWGQGTLVTVSS
VL: B3 VL with N31S, A33T, T53I, N54I, Y92F, S94T, S95T, Y99S, V100I
B7: 001-E06 (antibody, V domains shown)
VH: EVQLLESGGGLVQPGGSLRLSCAASGFTFSSNYMSWVRQAPGKGLEWVALIWYDGSNKYYADSVKGRFTISRDNSKNTLYLQMNSLRAEDTAVYYCAKDPLFDSWGQGTLVTVSS
VL: B1 VL with S25R, V34D, G52D, S54N, N55K, R100P
B8: 001-F02 (antibody, V domains shown)
VH: EVQLLESGGGLVQPGGSLRLSCAASGFTFSDYYMSWVRQAPGKGLEWVANINTDGSEKYYLDSVKGRFTISRDNSKNTLYLQMNSLRAEDTAVYYCAREEYGAFDIWGQGTLVTVSS
VL: B3 VL with N31S, A33T, G51D, T53N, N54K, Y92F, S94R, S95G, Y99S, V100I
B9: 001-F06 (antibody, V domains shown)
VH: EVQLLESGGGLVQPGGSLRLSCAASGFTFSSYAMHWVRQAPGKGLEWVSAISGGATTTYYADSVKGRFTISRDNSKNTLYLQMNSLRAEDTAVYYCAKGGTGDPYYFDYWGQGTLVTVSS
VL: B1 VL with V34D, G52R, S54N, N55Q, W93R, S96G, N98S, R100P
B10: 001-G10 (antibody, V domains shown)
VH: EVQLLESGGGLVQPGGSLRLSCAASGFTFSAYGMHWVRQAPGKGLEWVAVVSYDGREKHYADSVKGRFTISRDNSKNTLYLQMNSLRAEDTAVYYCARSDGGYDSDSGYYWGQGTLVTVSS
VL: QSVLTQPPSASGTPGQRVTISCSGSTSNIGSNFVYWYQQLPGTAPKLLIYDNNKRPSGVPDRFSGSKSGTSASLAISGLRSEDEADYYCSSYAYSDNILFGGGTKLTVLG
B11: 001-H10 (antibody, V domains shown)
VH: EVQLLESGGGLVQPGGSLRLSCAASGFTFDDYGMSWVRQAPGKGLEWVSVIYSGGSTYYADSVKGRFTISRDNSKNTLYLQMNSLRAEDTAVYYCARDRSSSWYRDGMDVWGQGTLVTVSS
VL: B1 VL with V34D, N98S, R100W
B12: 004-E08 (antibody, V domains shown)
VH: EVQLLESGGGLVQPGGSLRLSCAASGFTFSRYWMHWVRQVPGKGLEWVSGISDSGVVTYYADSVKGRFTISRDNSKNTLYLQMNSLRAEDTAVYYCARAQSVAFDIWGQGTLVTVSS
VL: B1 VL with T23S, Y33H, V34D, G52Y, N53D, S54D, N55L, R56L, N98S, R100W
B13: 005-B02 (antibody, V domains shown)
VH: EVQLLESGGGLVQPGGSLRLSCAASGFTFSDYYMSWIRQAPGKGLEWVALIWYDGGNEYYADSVKGRFTISRDNSKNTLYLQMNSLRAEDTAVYYCVRETGNYGMDVWGQGTLVTVSS
VL: B1 VL with V34D, G52R, S54N, N55Q, A92T, S96R, L97V, R100P

Tests used:
[1] = target: T1, wild type, full length murine TNFR2 (mouse); assay: flow cytometry, activated mouse CD4+ T cells
[2] = target: T1, wild type, full length murine TNFR2 (mouse); assay: flow cytometry on activated mouse CD4+ T cells, MFI minus isotype [cont. E]
[3] = target: T1, wild type, full length murine TNFR2 (mouse); assay: flow cytometry on activated mouse CD4+ T cells, suboptimal mAb concentration
[4] = target: Cynomolgus TNFR2 (cynomolgus (M. fascicularis)); assay: flow cytometry on stimulated cynomolgus CD4+ T cells, % TNFR2+ over isotype

Row | Binder | binding [4] | other results
1 | B1 | – | binding [1]: binds; binding [2]: binds; binding [3]: binds
2 | B2 | binds | –
3 | B3 | binds | –
4 | B4 | binds | –
5 | B5 | binds | –
6 | B6 | binds | –
7 | B7 | binds | –
8 | B8 | binds | –
9 | B9 | binds | –
10 | B10 | binds | –
11 | B11 | binds | –
12 | B12 | binds | –
13 | B13 | binds | –
